Assay results as given in PubChem BioAssay AID192 (DTP/NCI, 2004).
The list does not hold the whole screen: it is rich in T/C values a quarter to a half above the control, in often repeated tests (any T/C) and in doses without a T/C. Other doses and runs of a compound stand elsewhere. T/C: endpoint of the treated group in % of that of the vehicle group. Some doses have a count of surviving animals in place of a T/C: the source files T/C as zero there, which appears to mark a toxic dose or a test without result, not a measured value. Some survivor counts are full or nearly so, which does not show that the dose was tolerated: the source hardly ever lists a survival T/C far under the control, and the zero likely stands for such cases as well. Survivors were counted at the toxicity check, usually on the fifth day, unless a day is given; later deaths do not show. Schedules are NCI's codes, taken here to give the interval after Q, in days (D) or hours (H), and the number of doses after X. Where survival is the endpoint, this PubChem deposit counts one and a half times the control or more as active, and values a quarter to a half above the control carry no call in these data; other NCI protocols may use other cut-offs.

System: BDF1 mice, B16 melanoma ip, median survival T/C
Experiment: NCI In Vivo Anticancer Drug Screen. Data for tumor model B16 Melanoma (intraperitoneal) in B6D2F1 (BDF1) mice
Conditions: T/C endpoint: median survival time, higher T/C = longer survival
Summary of the method: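 In this screen, activity was judged from survival or tumor size in treated versus vehicle-treated tumor-bearing mice, reported as T/C.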

[1] = dose: 200.0 mg/kg/injection, schedule: Q01DX009 (ip), vehicle: saline
[2] = dose: 100.0 mg/kg/injection, schedule: Q01DX009 (ip), vehicle: Klucel (hydroxypropylcellulose) (HPC)
[3] = dose: 200.0 mg/kg/injection, schedule: Q01DX009 (ip), vehicle: Klucel (hydroxypropylcellulose) (HPC)
[4] = dose: 40.0 mg/kg/injection, schedule: Q01DX009 (ip), vehicle: saline
[5] = dose: 100.0 mg/kg/injection, schedule: Q01DX009 (ip), vehicle: saline with Tween-80
[6] = dose: 50.0 mg/kg/injection, schedule: Q01DX009 (ip), vehicle: saline with Tween-80

## CN1CCC(CN2c3ccccc3Sc3ccccc32)C1 (stereo not given)
dose: 1.56 mg/kg/injection, schedule: Q01DX009 (ip), vehicle: saline
  survivor count: 10 of 10
dose: 100.0 mg/kg/injection, schedule: Q01DX009 (ip), vehicle: saline
  survivor count: 3 of 10
[1]
  survivor count: 0 of 10
dose: 400.0 mg/kg/injection, schedule: Q01DX009 (ip), vehicle: saline
  survivor count: 0 of 10

## Nc1ccccc1SC1CC(=O)N(c2ccc(Br)cc2Cl)C1=O (stereo not given)
[2]
  survivor count: 10 of 10
[3]
  survivor count: 10 of 10

## NC(=O)c1cc(N2CC2)c([N+](=O)[O-])cc1[N+](=O)[O-]
[4]
  survivor count: 6 of 6

## C/C(Cc1ccccc1)=N\[N+](C)(C)C
dose: 300.0 mg/kg/injection, schedule: Q04DX003 (ip), vehicle: saline
  survivor count: 1 of 10

## CCCCC(=O)NN
[5]
  survivor count: 10 of 10

## CCCCCCCCCCCC(c1ccccc1)[N+](C)(C)C (stereo not given)
dose: 16.0 mg/kg/injection, schedule: Q01DX009 (ip), vehicle: saline sonified
  survivor count: 5 of 6

## COC(=O)c1cc(Cl)ccc1OCC(=O)Nc1ccc([N+](=O)[O-])cc1
[3]
  survivor count: 9 of 10

## CN(Cc1cnc2nc(N)nc(N)c2n1)c1c(Cl)cc(C(=O)NC(CCC(=O)O)C(=O)O)cc1Cl (stereo not given)
dose: 70.0 mg/kg/injection, schedule: Q01DX011 (ip), vehicle: saline
  survivor count: 10 of 10
[2]
  survivor count: 10 of 10

## C=C1C(=O)O[C@@H]2[C@H](O)[C@@H](C)[C@@H]3C=CC(=O)[C@@]3(C)[C@@H](OC(=O)/C(C)=C/C)[C@H]12
dose: 12.0 mg/kg/injection, schedule: Q01DX009 (ip), vehicle: other
  survivor count: 5 of 10
dose: 12.0 mg/kg/injection, schedule: Q01DX009 (ip), vehicle: saline + alcohol
  survivor count: 10 of 10

## N=Cc1c(O)[nH]c(=O)[nH]c1=O
dose: 75.0 mg/kg/injection, schedule: Q01DX009 (ip), vehicle: Klucel (hydroxypropylcellulose) (HPC)
  survivor count: 10 of 10

## Cc1nn(C2CC(O)C(O)C(CO)O2)c(=O)[nH]c1=O (stereo not given)
[1]
  survivor count: 10 of 10

## C=C1CCN(c2ccccc2)C1=O
dose: 32.0 mg/kg/injection, schedule: Q01DX009 (ip), vehicle: saline + alcohol
  T/C: 129 % of control

## O=CN(O)CC(=O)O.[Zn]
[4]
  survivor count: 0 of 10

## O=C1NC(c2ccccc2)N=C2Oc3ccccc3C=C12 (stereo not given)
dose: 12.5 mg/kg/injection, schedule: Q01DX009 (ip), vehicle: saline with Tween-80
  T/C: 125 % of control
dose: 25.0 mg/kg/injection, schedule: Q01DX009 (ip), vehicle: saline with Tween-80
  T/C: 130 % of control
[6]
  T/C: 144 % of control
  survivor count: 9 of 10
[5]
  survivor count: 3 of 10

## COc1ccc(CC(C(=O)O)C(Cc2ccc(OC)c(OC)c2)C(=O)O)cc1OC (stereo not given)
dose: 400.0 mg/kg/injection, schedule: Q01DX009 (ip), vehicle: Klucel (hydroxypropylcellulose) (HPC)
  survivor count: 9 of 10
